Drawing on patent publication US20250346630A1, “Engineering Peptides Using Peptide Epitope Linker Evolution” (AGENCY FOR SCIENCE, TECHNOLOGY AND RESEARCH, priority 2022, published 2025), this text covers binding for 18 molecules.

Results are given in words; binding and its absence hold for the method and conditions named.

Experiment [1] has as its target KRas. The experiment is described as follows: M13 linear 12mer phage selection on the control protein, NGS abundance heat map [CONT.) D].
Experiment [2] concerns the target MDM2. The description is as above.
Experiment [3] has as its target MDM2. The experiment is described as follows: M13 C7C phage selection on the control protein, NGS abundance heat map [CONT.) C].

B1: … (peptide)
peptide displayed on M13 phage (pIII): TISYDRSTLFLF
As to B1, the binding entry in experiment [1] and in experiment [2] was “no binding” in each case.

B2: … (peptide)
peptide displayed on M13 phage (pIII): AQSYTRMELLRL
Turning to B2, the binding result in experiment [1] and in experiment [2] was “no binding” each time.

B3: … (peptide)
peptide displayed on M13 phage (pIII): SGIQQRMIVTWP
In the case of B3, the binding result in experiment [1] is given as “no binding”.

B4: … (peptide)
peptide displayed on M13 phage (pIII): VEGQNLEALVTD
In the case of B4, the binding entry in experiment [1] and in experiment [2] was “no binding” in each case.

B5: … (peptide)
peptide displayed on M13 phage (pIII): CETGFYKTC
modifications: two flanking Cys of the disulphide constrained C7C library
In the case of B5, the binding entry in experiment [3] is “no binding”.

B6: … (peptide)
peptide displayed on M13 phage (pIII): KLWSIPTNFLLP
For the molecule B6, the binding result in experiment [1] was “no binding”.

B7: … (peptide)
peptide displayed on M13 phage (pIII): CELGYYNDC
modifications: two flanking Cys of the disulphide constrained C7C library
Regarding B7, the binding result in experiment [3] is “no binding”.

B8: … (peptide)
peptide displayed on M13 phage (pIII): CETGYFSQC
modifications: two flanking Cys of the disulphide constrained C7C library
B8: the binding entry in experiment [3] is recorded as “no binding”.

B9: … (peptide)
peptide displayed on M13 phage (pIII): CETGFFLKC
modifications: two flanking Cys of the disulphide constrained C7C library
Consider B9, for which the binding result in experiment [3] is reported as “no binding”.

B10: … (peptide)
peptide displayed on M13 phage (pIII): CETGFFTGC
modifications: two flanking Cys of the disulphide constrained C7C library
Consider B10, for which the binding result in experiment [3] is listed as “no binding”.

B11: … (peptide)
peptide displayed on M13 phage (pIII): CETGFFLRC
modifications: two flanking Cys of the disulphide constrained C7C library
Consider B11, for which the binding result in experiment [3] is given as “no binding”.

B12: … (peptide)
peptide displayed on M13 phage (pIII): CELGFYRLC
modifications: two flanking Cys of the disulphide constrained C7C library
As for B12, the binding entry in experiment [3] is reported as “no binding”.

B13: … (peptide)
peptide displayed on M13 phage (pIII): CIHSPTSLC
modifications: two flanking Cys of the disulphide constrained C7C library
On to B13, for which the binding entry in experiment [3] was “no binding”.

B14: … (peptide)
peptide displayed on M13 phage (pIII): CEMGYFGNC
modifications: two flanking Cys of the disulphide constrained C7C library
Consider B14, for which the binding result in experiment [3] was “no binding”.

B15: … (peptide)
peptide displayed on M13 phage (pIII): LPRMMSDGEAGD
For the molecule B15, the binding entry in experiment [1] and in experiment [2] was “no binding” in each case.

B16: … (peptide)
peptide displayed on M13 phage (pIII): HYSRTDLLAYRW
Take B16: in experiment [1], the binding entry is reported as “no binding”.

B17: … (peptide)
peptide displayed on M13 phage (pIII): YLMQTNQWQIAS
As to B17, the binding result in experiment [1] and in experiment [2] was “no binding” throughout.

B18: … (peptide)
peptide displayed on M13 phage (pIII): DSAKERLAVSGT
Take B18: the binding result in experiment [1] and in experiment [2] was “no binding” each time.
